This is one part of the list.
Key:
Experiment in all cases: log2 fold change, soluble protein after heating vs DMSO (PISA); higher = thermal stabilisation; K562 lysate, 10 uM; active = over 0.2 and 3.5 SD of the protein, either way, in both replicates (recomputed)
[1] = compound: NCC(=O)Nc1ccc(-n2nc(C(F)(F)F)cc2-c2ccc3c(ccc4ccccc43)c2)cc1
How it was run: (§1)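 Quantification was by TMTpro 16plex LC-MS/MS with equalised channel sums, applied to the supernatant after 21,000xg for 90 min. Samples were crude K562 extract at 1 mg/mL protein in PBS pH 7.4 with 1 mM MgCl2, treated with 10 μM compound for 30 min, heated for 3 min across 48°C-58°C, pooled and brought to 0.5% NP-40 at 4°C. Values are log-two fold changes in thermal stability relative to solvent controls, from duplicates.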

Protein sequences, listed by entry. Tags and fused reporters are not part of them. Lines headed by an entry give the natural chain unless they say otherwise; changes in a name come on top.
UniProt Q53GS7: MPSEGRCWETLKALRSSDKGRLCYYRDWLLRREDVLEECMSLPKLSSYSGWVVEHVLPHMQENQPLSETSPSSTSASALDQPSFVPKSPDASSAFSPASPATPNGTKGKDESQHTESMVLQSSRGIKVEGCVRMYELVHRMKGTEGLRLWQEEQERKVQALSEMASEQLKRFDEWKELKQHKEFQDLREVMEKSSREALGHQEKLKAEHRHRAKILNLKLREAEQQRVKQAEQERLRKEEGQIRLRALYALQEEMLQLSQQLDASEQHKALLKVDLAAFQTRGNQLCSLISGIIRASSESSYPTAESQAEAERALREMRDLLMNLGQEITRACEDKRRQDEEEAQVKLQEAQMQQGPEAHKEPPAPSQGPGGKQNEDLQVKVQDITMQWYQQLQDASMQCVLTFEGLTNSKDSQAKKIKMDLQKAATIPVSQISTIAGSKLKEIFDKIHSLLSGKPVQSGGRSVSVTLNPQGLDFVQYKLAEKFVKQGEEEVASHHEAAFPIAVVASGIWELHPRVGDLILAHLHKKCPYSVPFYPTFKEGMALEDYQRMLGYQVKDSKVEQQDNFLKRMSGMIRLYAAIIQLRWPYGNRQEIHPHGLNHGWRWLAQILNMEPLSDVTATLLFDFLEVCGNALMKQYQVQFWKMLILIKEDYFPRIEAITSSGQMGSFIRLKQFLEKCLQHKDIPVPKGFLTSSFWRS
UniProt Q9BYB4: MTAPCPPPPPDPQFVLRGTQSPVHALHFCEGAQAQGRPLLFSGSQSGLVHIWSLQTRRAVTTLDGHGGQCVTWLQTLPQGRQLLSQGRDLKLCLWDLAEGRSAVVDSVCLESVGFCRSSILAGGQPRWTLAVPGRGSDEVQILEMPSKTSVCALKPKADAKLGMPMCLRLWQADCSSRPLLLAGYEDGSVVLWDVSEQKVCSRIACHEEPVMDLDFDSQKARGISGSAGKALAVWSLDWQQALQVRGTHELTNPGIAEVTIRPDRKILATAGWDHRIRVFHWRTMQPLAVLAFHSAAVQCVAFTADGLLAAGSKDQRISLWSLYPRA
UniProt Q13227: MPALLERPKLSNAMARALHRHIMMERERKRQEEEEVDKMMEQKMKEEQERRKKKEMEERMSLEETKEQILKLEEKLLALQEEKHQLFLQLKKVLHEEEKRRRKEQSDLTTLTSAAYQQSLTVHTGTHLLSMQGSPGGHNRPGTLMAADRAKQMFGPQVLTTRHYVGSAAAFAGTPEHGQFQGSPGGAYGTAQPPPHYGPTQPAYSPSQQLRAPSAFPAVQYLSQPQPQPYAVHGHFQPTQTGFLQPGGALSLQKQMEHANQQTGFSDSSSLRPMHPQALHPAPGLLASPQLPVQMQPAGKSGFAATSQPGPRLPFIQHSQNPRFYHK
UniProt Q9BRR8: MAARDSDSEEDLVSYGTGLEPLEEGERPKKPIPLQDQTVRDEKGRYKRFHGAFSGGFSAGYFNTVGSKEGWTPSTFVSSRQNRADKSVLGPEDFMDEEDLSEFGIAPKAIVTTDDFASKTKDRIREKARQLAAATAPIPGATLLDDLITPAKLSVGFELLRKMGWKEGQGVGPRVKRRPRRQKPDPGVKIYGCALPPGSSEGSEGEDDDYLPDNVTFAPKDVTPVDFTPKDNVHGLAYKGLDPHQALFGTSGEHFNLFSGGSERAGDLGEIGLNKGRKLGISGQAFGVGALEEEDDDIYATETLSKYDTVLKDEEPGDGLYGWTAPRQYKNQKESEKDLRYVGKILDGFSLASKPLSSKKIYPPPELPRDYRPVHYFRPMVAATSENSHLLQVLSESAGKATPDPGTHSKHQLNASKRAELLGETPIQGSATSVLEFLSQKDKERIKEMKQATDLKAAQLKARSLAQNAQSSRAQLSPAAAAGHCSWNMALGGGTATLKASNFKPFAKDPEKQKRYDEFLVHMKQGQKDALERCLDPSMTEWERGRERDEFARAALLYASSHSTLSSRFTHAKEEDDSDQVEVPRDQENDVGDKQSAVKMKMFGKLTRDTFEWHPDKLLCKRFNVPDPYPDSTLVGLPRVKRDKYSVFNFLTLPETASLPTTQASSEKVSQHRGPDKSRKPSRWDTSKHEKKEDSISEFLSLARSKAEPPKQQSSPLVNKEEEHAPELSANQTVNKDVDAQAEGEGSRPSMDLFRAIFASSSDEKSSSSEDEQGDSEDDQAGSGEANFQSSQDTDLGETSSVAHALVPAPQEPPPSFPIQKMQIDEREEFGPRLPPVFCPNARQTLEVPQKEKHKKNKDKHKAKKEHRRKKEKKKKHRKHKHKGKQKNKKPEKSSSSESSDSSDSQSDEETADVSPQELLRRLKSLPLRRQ
UniProt Q9HCN4, whole entry, looked up: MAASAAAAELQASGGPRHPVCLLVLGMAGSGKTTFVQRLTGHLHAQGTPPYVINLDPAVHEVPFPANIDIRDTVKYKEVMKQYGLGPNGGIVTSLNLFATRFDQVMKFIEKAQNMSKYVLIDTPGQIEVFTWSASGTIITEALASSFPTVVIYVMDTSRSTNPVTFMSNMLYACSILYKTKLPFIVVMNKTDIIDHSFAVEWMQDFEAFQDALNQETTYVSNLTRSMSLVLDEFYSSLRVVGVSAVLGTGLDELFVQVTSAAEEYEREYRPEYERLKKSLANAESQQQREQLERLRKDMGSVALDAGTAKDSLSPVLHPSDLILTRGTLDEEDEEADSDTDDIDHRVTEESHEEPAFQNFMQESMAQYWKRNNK
UniProt Q9H4A6: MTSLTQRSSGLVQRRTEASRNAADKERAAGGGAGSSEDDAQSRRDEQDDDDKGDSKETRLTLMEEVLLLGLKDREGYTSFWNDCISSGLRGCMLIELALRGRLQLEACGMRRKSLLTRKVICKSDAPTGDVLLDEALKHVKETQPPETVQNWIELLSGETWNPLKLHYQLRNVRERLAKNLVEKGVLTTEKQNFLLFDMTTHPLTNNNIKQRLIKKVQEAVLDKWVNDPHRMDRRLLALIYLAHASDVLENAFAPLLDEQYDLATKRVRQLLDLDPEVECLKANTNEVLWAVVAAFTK
UniProt Q92820: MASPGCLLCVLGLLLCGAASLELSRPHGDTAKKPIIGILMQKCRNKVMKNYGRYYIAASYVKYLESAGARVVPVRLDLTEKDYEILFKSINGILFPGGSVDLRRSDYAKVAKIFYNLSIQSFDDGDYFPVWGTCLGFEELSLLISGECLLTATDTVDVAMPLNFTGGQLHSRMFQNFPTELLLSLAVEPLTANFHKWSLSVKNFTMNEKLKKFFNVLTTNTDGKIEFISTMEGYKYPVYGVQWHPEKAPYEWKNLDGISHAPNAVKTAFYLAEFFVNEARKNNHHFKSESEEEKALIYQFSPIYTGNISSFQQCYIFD
UniProt Q9HAV0, whole entry, looked up: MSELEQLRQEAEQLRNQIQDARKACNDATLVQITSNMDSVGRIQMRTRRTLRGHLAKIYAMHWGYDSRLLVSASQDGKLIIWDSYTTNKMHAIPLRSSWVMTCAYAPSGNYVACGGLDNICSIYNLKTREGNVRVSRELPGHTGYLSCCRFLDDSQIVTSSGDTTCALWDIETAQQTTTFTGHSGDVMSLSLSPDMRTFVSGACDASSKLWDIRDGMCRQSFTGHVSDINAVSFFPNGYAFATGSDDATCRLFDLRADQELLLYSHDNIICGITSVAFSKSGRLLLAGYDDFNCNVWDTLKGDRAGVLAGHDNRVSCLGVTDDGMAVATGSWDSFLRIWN
UniProt Q86V85: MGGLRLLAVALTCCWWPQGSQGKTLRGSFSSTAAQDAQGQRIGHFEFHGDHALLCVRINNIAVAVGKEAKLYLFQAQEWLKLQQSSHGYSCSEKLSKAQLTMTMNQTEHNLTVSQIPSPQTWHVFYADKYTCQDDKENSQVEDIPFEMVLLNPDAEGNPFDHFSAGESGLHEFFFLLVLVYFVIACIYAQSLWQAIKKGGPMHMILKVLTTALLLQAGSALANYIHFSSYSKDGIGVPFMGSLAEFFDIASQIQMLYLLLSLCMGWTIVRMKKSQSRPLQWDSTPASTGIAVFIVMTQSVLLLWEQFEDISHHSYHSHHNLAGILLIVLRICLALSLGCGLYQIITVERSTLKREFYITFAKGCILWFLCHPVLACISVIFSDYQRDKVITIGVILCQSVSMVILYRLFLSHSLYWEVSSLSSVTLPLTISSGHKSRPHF
UniProt Q9P107: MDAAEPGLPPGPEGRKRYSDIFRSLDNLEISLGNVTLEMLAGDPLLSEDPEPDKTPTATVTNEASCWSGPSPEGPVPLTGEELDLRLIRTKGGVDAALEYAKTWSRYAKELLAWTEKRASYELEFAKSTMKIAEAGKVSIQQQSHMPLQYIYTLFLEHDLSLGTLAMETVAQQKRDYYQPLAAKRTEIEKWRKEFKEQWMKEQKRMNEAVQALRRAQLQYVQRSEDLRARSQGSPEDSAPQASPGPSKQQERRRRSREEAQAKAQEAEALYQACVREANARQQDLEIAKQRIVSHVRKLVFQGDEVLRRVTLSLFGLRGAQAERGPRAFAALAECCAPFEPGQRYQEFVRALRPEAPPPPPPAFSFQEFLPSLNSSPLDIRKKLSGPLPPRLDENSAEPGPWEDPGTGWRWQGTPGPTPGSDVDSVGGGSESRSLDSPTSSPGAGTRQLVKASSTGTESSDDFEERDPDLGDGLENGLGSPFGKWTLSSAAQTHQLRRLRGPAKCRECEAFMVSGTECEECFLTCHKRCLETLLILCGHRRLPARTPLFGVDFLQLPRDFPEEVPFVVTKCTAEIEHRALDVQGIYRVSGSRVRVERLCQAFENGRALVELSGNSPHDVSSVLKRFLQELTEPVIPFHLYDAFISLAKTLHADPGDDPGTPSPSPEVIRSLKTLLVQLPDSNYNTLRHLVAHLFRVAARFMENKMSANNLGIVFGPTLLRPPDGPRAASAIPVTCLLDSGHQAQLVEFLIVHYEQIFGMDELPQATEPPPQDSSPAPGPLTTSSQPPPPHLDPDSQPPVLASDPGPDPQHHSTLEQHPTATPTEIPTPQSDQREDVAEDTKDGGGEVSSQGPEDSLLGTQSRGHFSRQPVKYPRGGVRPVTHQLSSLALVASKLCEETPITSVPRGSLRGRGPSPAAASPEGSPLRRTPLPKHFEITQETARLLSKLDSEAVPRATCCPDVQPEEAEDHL
UniProt Q9Y692: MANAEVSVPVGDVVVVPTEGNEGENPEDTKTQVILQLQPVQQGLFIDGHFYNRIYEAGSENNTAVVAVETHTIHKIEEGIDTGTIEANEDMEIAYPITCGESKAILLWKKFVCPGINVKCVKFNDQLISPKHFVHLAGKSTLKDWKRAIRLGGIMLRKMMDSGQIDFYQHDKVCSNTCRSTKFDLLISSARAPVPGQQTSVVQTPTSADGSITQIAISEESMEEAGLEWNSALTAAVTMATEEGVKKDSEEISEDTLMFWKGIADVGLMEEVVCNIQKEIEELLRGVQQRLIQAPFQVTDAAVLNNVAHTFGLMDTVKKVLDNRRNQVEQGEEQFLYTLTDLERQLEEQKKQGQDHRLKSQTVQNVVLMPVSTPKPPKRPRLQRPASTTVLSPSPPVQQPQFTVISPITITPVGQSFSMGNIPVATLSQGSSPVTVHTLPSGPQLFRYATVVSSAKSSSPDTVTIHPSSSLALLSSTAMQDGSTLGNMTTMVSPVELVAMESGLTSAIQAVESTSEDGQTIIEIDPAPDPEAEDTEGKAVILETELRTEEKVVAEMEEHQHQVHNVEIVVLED
UniProt I6L899: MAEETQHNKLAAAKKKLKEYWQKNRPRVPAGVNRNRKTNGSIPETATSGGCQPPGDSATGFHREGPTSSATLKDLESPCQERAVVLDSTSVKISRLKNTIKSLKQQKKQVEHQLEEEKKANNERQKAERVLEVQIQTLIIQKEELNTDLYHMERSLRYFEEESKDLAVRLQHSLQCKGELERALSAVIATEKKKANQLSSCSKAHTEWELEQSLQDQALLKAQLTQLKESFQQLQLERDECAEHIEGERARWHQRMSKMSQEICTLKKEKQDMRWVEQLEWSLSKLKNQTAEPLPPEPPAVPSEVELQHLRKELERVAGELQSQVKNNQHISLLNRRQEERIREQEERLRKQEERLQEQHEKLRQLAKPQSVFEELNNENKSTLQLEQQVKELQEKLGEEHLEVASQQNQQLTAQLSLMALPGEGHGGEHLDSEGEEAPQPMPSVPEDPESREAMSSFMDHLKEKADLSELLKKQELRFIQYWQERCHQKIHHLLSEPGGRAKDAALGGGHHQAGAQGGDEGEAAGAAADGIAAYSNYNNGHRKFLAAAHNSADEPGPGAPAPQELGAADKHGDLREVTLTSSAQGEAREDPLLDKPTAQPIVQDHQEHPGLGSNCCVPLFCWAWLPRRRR

vorinostat = compound: O=C(CCCCCCC(=O)Nc1ccccc1)NO [vorinostat]
How it was run: as §1

silmitasertib = compound: O=C(O)c1ccc2c(c1)nc(Nc1cccc(Cl)c1)c1ccncc12 [silmitasertib]
How it was run: as §1

[2] = compound: O=C1NC(=O)C(c2cnc3ccccn23)=C1c1cn2c3c(cc(F)cc13)CN(C(=O)N1CCCCC1)CC2
How it was run: as §1

entospletinib = compound: c1cn2cc(-c3ccc4cn[nH]c4c3)nc(Nc3ccc(N4CCOCC4)cc3)c2n1 [entospletinib]
How it was run: as §1

Measured: log2 fold change

GLE1 (UniProt Q53GS7)
inactive: [1] 0.002 | vorinostat -0.167 | silmitasertib 0.095 | [2] 0.04 | entospletinib -0.014

GNB1L (UniProt Q9BYB4)
inactive: [1] -0.002 | vorinostat 0.025 | silmitasertib 0.015 | [2] 0.003 | entospletinib 0.063

GPS2 (UniProt Q13227)
inactive: [1] 0.097 | vorinostat -0.222 | silmitasertib 0.025 | [2] -0.104 | entospletinib -0.049

Reprinted at random: two entries already listed.
GNB1L (UniProt Q9BYB4)
inactive: [1] -0.002 | vorinostat 0.025 | silmitasertib 0.015 | [2] 0.003 | entospletinib 0.063

GPS2 (UniProt Q13227)
inactive: [1] 0.097 | vorinostat -0.222 | silmitasertib 0.025 | [2] -0.104 | entospletinib -0.049

(list continues)

GPATCH1 (UniProt Q9BRR8)
inactive: [1] 0.029 | vorinostat -0.036 | silmitasertib -0.054 | [2] -0.041 | entospletinib 0.035

GPN1 isoform 5 (UniProt Q9HCN4)
inactive: [1] -0.025 | vorinostat 0.11 | silmitasertib -0.033 | [2] 0.03 | entospletinib 0.066

GOLPH3 (UniProt Q9H4A6)
inactive: [1] -0.06 | vorinostat -0.06 | silmitasertib -0.001 | [2] 0.023 | entospletinib 0.026

GPS1 (UniProt A8K070)
inactive: [1] -0.052 | vorinostat 0.043 | silmitasertib -0.051 | [2] 0.037 | entospletinib 0.004

GGH (UniProt Q92820)
inactive: [1] 0.01 | vorinostat 0.209 | silmitasertib -0.034 | [2] 0.028 | entospletinib 0.018

GNB4 (UniProt Q9HAV0)
inactive: vorinostat 0.006 | silmitasertib 0.017 | [2] -0.059 | entospletinib 0.029

GPR180 (UniProt Q86V85)
inactive: [2] 0.102

GMIP (UniProt Q9P107)
inactive: [1] -0.018 | silmitasertib 0.058 | [2] 0.021 | entospletinib -0.038
active: vorinostat -0.302

GMEB1 isoform 2 (UniProt Q9Y692)
inactive: [2] -0.109

GOLGA8R (UniProt I6L899)
inactive: vorinostat 0.161 | silmitasertib -0.152 | [2] 0.364

Source: the supplement of paper PMC10849652
